In publication PMC9600267, “The Antibacterial Type VII Secretion System of Bacillus subtilis: Structure and Interactions of the Pseudokinase YukC/EssB” (mBio, 2022) one finds binding data, which are given here for 2 molecules.

Results are given in words; binding and its absence hold for the method and conditions named. A result given as binding can be weak or reduced; the word gives no strength. Sequences can lack the tags named with a protein.

The target of test [1] is T1, YueB (full length), bacterial two-hybrid fusion (Bacillus subtilis 168) (UniProt O32101).
T1 sequence: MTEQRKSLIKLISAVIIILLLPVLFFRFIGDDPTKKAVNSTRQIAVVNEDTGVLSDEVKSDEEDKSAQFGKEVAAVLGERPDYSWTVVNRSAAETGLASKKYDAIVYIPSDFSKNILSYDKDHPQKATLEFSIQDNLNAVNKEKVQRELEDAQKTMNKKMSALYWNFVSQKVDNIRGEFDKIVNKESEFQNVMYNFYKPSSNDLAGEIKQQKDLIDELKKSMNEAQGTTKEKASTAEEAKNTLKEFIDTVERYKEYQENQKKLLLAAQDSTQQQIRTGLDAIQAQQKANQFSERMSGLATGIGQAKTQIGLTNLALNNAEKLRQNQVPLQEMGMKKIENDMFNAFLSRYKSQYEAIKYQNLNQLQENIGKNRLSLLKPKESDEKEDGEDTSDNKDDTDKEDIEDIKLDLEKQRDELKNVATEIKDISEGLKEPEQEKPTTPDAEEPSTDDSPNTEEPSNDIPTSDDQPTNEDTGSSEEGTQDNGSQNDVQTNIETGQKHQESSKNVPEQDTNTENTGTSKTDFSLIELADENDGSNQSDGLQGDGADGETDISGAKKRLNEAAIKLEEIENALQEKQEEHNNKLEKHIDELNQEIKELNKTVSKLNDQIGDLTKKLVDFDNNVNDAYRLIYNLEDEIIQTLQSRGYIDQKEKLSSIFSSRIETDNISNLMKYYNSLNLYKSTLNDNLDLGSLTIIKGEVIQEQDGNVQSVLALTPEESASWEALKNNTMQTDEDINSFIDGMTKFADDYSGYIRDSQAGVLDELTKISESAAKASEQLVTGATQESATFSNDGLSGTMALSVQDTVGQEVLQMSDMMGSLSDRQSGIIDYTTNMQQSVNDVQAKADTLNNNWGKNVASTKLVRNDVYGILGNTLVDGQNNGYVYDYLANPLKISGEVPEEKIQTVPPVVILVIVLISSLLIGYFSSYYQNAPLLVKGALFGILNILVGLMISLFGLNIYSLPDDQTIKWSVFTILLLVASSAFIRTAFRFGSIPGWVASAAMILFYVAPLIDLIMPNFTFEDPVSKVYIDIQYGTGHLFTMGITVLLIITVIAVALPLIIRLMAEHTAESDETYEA
Briefly: two-hybrid; bacterial two-hybrid (BACTH) in E. coli BTH101; T25 (pKT25/pKNT25) and T18 (pUT18/pUT18C) fusions; spots on LB with X-Gal and IPTG, 25°C, imaged after 48 h.

Test [2] addresses YueBINT (YueB lacking residues 31 to 817), bacterial two-hybrid fusion (Bacillus subtilis 168) (UniProt O32101). The test is described as above.

Consider “YueBINT (YueB lacking residues 31 to 817), bacterial two-hybrid fusion (from UniProt O32101)”, for which the binding entry in test [1] is listed as “binds”.

B1: YukC (full length), bacterial two-hybrid fusion (protein, UniProt P71070 1-451)
chain: MSGEQKSYLENQLEAVAEKTDAGYTFTFQREKIKLLDGLEANVIKDINPFFHKEIDVTDDEVIITIQPPSSYKAFRFMKAKDKKSKWQFAYQLVQAVQQHNLSRLNLIVAPENIVFDKGLTPYFLHYGVKESIPPYERDEERVWQELKAAAALAVDGAFAFEDYLKFNETLTFSAEAKAILDAESYDDLLELIQTHIDELEAKAKTYIHIPRKKWNIQRYIGLGLIVLLVPALIYSMYALFFAQPKHQAIVDSNRAFLNKQYSEVISTLSKYDAESLPESVQYQLATSYVEVENLGSAKTKNIENNLVTLQSDPQHFLYWIDYGRGEYKEAISIGRKLEYNDYIYFALAKYKQQLLSEDTNDEDIQKELDSVNSELEKAQKERQENKQSNSETSLVDTSEEQTQTDEEKQAEEKAAEEKAAAEEKAKKEEQKEKEDEKKETEKKDEKKDDK
As to B1, the binding result in test [2] is given as “binds”.
